We go through two sequences from patent US9675662B2, “Compositions for inhibition of RNA polymerase I and methods of production and use thereof” (The Board of Regents of the University of Oklahoma, priority 2011, dated 2017).

The test system of this data set is WI38 cells. As to the kind of experiment: Growth of WI38 cells (MTT assay) and peptide uptake. The data set is classed as cell-based. The settings on record: fluorescent TAT-tagged 22mer. The procedure:
FIG. 11 illustrates the effects of TAT-22mer on WI38 cells after 48 hours using the MTT assay.
In these experiments, and in others described below, cell numbers were determined using the […], and the absorbance at 570 nm is presented instead of cell numbers.
Background: Formazan colour is commonly taken as a measure of viable cells.

“NKVSSSHIGCLVHGCFNASIPK (listed as Homo sapiens) [22mer, amino acids 137 to 158 of mouse Rpa43]”: the “uptake of peptide by WI38 cells” value is listed as “did take up the peptide”.

As for “YGRKKEEQRRNKVSSSHIGCLVHGCFNASIPK (1st ten amino acids are TAT peptide from HIV; last 22 amino acids are from Homo sapiens) [TAT-22mer, 22mer with ten TAT amino acids added to the N-terminus]”, the “uptake of peptide by WI38 cells” value is “cells take up”.
